# Assay results: article PMC5996148
# The chains behind the UniProt entries cited, without tags or fusion partners. Where a name states a change or a piece, a line headed by the entry shows the natural chain unless it says otherwise.
# UniProt P41250: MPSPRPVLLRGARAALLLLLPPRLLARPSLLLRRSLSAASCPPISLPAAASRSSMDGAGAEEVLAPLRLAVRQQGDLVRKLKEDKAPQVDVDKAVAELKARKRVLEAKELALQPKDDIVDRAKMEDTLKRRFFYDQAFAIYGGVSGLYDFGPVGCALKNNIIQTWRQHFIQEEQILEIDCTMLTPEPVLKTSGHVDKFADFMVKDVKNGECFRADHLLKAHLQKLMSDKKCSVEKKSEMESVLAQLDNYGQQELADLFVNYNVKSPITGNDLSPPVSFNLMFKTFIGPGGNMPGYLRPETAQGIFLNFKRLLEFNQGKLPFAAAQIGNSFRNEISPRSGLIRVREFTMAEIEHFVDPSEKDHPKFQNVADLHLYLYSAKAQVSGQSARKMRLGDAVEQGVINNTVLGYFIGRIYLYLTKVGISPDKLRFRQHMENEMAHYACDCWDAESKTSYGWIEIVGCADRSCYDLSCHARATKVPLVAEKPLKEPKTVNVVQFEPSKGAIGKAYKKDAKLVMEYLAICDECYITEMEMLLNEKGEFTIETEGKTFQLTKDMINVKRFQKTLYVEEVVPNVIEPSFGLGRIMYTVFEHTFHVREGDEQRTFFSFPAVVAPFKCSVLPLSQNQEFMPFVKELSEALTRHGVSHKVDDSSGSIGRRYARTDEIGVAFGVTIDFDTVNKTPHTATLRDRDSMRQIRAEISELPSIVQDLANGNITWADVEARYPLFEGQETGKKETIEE
# The other results are listed elsewhere or left out. For some of these results: Construct or isoform of the protein are uncertain.
# How the values were obtained:
# Experiment in all cases: protein microarray (ProtoArray v5.0), streptavidin-Alexa Fluor 647
# Conditions in all cases: 3'-biotin; 20 mM Tris (pH 7.5), 5 mM MgCl2, 100 mM KCl, 0.1% Tween-20, A/T-rich and random oligonucleotide blockers; temperature not stated; high values mean tight binding
# [1] = test system: GAPDHS (human)
# [2] = biological target: GARS (UniProt P41250)
# [3] = test system: GAST (human)
# [4] = test system: GATA3 (human)
# [5] = test system: GBE1 (human)
# [6] = test system: GBP1 (human)
# [7] = test system: GBP6 (human)
# [8] = test system: GCA (human)
# [9] = test system: GCHFR (human)
# [10] = test system: GDF2 (human)
sequence,measurement,setting,value
GGGAGGCTGAGGCAGG [G4-1 biotinylated (PQS2)],binding signal,[1],-0.343 z-score
same,binding signal,[2],-0.322 z-score
same,binding signal,[3],-0.332 z-score
same,binding signal,[4],-0.306 z-score
same,binding signal,[5],-0.286 z-score
same,binding signal,[6],-0.33 z-score
same,binding signal,[7],-0.337 z-score
same,binding signal,[8],-0.345 z-score
same,binding signal,[9],-0.305 z-score
same,binding signal,[10],-0.299 z-score
